Measurements reported in patent US20250302795A1, “SMALL MOLECULE COMPOUNDS WITH NEGATIVE REGULATORY EFFECTS ON Nrf2 SIGNALING [sequence] AND THEIR POTENTIAL APPLICATIONS” (Beijing Hebabiz Biotechnology Co., Inc., priority 2022, published 2025).
For at least one compound, name, drawing or mass did not settle the structure.

What was measured:
[1] = system: rats with non-alcoholic steatohepatitis induced by high-fat diet; assay: Liver indices, non-alcoholic steatohepatitis model induced by high-fat diet; type: in vivo, rat; details: NR218 at high, medium and low doses; P<0.01 or P<0.05
Protocol: The normal control group was fed a standard diet for twelve weeks while the other groups were fed a high-fat diet consisting of 88% basal diet+10% lard+2% cholesterol for twelve weeks. After establishing the model, the drug groups received their respective treatments at a dosage of 10 ml/kg while the normal and model groups received an equal volume of 0.5% CMC-Na solution. The rats were provided with ad libitum access to water and food, while the animal chamber was maintained under controlled conditions of quietness, natural lighting, a temperature of 25±0.5° C., and a humidity level of 55±5%. The rats' body weights were measured once per week and recorded.
(3) Liver indices was determined by dividing the wet weight of the liver by the body weight of rats and multiplying by 100%, after liver tissue was isolated, washed with normal saline, dried using filter paper, and weighed following blood sampling from the abdominal aorta. (4) HE staining and oil red staining were performed on liver tissue samples obtained from the abdominal aorta of rats. The tissue was fixed in 10% neutral formalin, followed by embedding, slicing, dewaxing, staining, transparency treatment, and sealing using routine procedures. Microscopic examination was conducted to observe the pathological changes in rat liver tissues across different groups. […]

[2] = system: rats with nonalcoholic steatohepatitis induced by a high-fat diet and CCl4; assay: Liver histopathology (HE, oil red, Masson staining), high-fat diet and CCl4 model; type: in vivo, rat; details: positive control groups and NR218 high-, medium-, low-dose groups
Protocol: The normal control group were fed a standard diet while the other groups were exclusively fed a high-fat diet consisting of 88% basal diet +10% lard +2% cholesterol for the initial six weeks. Starting from the seventh week, they received subcutaneous injections of a 30% CCl4 olive oil solution at a dosage of 0.2 ml/100 g behind their back twice per week for a total of four times. Once the model was successfully replicated, the corresponding drugs were administered orally (10 ml/kg) in each treatment group, and both the normal control group and the model group received equal volumes of a 0.5% CMC-Na solution once daily for ten consecutive weeks. Throughout the experimental period, the rats were provided with ad libitum access to food and water, while the animal chamber was maintained under controlled conditions of quietness, natural lighting, a temperature of 25±0.5° C., and a humidity level of 55±5%. The rats' body weights were measured once per week and recorded.
After collecting blood samples from the abdominal aorta of rats, the liver tissue was isolated and fixed in a 10% neutral formalin solution. Following standard procedures for embedding, sectioning, dewaxing, staining, clearing, and sealing, the liver tissues were subjected to HE (hematoxylin-eosin), Masson's trichrome, and oil red staining techniques respectively. […]

`CC[C@H]1[C@@H](O)[C@@H]2[C@H](CC[C@]3(C)[C@@H]([C@H](C)CCC(=O)O)CC[C@@H]23)[C@@]2(C)CC[C@@H](O)C[C@@H]12` [Ocaliva, Obercholic acid] was tested, and the “liver indices versus model group (in words)” value [1] was “significant decrease compared to the model group” and the “Oil red O staining of liver tissue (in words)” value [2] was “significantly ameliorated steatosis severity and reduced lipid droplet content”.
